Measurements reported in publication PMC3264577, “RINL, Guanine Nucleotide Exchange Factor Rab5-Subfamily, Is Involved in the EphA8-Degradation Pathway with Odin” (PLoS ONE, 2012).
Results are given in words; binding and its absence hold for the method and conditions named. Binding seen in cells or lysates may run through a third protein. Some binding calls cover weakened binding; strength is not graded here. Sequences can lack the tags named with a protein.

How the values were obtained:
Test in all cases: co-IP; FLAG-RIN family, FLAG-mock or deletion mutants of FLAG-RINL transfected into HEK293T; lysates immunoprecipitated with anti-FLAG; endogenous odin blotted
FLAG-RIN1 = target: T1, FLAG-RIN1 (UniProt Q13671)
T1 sequence: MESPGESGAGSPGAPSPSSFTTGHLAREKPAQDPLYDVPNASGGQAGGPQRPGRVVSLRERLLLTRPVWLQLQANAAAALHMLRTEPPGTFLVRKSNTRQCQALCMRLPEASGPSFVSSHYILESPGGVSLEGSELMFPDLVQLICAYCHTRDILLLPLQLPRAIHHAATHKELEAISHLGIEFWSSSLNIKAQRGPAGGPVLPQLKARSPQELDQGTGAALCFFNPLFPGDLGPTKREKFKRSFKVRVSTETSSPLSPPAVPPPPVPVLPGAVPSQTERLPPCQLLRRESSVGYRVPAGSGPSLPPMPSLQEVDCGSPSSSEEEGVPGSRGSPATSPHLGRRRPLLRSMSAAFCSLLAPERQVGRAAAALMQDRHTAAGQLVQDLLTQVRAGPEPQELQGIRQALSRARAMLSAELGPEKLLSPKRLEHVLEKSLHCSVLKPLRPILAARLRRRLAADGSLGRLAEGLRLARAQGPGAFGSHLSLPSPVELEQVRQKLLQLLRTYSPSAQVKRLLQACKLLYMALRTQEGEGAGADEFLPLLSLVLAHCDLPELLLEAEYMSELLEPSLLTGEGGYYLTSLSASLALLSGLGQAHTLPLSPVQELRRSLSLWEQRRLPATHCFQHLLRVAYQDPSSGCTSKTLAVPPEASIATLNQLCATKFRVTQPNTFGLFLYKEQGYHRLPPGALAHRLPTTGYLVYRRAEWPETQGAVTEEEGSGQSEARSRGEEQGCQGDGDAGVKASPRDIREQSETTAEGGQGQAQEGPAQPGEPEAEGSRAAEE

FLAG-RIN2 = target: T2, FLAG-RIN2 (UniProt Q8WYP3)
T2 sequence: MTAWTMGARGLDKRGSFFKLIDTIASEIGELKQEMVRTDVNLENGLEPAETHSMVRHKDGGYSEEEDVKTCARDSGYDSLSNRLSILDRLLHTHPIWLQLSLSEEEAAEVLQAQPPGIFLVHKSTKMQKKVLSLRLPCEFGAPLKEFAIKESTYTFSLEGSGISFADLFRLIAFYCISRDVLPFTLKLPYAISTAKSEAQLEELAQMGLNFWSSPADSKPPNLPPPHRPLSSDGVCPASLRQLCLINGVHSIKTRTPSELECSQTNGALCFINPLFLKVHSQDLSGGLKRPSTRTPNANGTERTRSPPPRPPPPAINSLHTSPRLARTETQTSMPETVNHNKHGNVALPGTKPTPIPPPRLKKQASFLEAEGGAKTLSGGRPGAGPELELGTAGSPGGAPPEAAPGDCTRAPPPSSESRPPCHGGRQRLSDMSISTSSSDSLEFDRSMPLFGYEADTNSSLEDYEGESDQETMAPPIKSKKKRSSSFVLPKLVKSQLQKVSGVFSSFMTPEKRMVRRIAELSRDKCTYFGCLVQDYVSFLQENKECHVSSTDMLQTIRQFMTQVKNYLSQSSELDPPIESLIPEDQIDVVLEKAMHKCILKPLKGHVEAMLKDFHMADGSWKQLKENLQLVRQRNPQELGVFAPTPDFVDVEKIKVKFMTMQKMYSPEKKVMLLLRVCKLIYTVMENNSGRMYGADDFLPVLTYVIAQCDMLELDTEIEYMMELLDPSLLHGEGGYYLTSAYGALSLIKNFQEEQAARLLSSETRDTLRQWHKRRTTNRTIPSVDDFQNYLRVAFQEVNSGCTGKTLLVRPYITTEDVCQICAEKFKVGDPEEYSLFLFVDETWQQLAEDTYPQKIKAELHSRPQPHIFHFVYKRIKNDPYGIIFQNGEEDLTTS

FLAG-RIN3 = target: T3, FLAG-RIN3 (UniProt Q8TB24)
T3 sequence: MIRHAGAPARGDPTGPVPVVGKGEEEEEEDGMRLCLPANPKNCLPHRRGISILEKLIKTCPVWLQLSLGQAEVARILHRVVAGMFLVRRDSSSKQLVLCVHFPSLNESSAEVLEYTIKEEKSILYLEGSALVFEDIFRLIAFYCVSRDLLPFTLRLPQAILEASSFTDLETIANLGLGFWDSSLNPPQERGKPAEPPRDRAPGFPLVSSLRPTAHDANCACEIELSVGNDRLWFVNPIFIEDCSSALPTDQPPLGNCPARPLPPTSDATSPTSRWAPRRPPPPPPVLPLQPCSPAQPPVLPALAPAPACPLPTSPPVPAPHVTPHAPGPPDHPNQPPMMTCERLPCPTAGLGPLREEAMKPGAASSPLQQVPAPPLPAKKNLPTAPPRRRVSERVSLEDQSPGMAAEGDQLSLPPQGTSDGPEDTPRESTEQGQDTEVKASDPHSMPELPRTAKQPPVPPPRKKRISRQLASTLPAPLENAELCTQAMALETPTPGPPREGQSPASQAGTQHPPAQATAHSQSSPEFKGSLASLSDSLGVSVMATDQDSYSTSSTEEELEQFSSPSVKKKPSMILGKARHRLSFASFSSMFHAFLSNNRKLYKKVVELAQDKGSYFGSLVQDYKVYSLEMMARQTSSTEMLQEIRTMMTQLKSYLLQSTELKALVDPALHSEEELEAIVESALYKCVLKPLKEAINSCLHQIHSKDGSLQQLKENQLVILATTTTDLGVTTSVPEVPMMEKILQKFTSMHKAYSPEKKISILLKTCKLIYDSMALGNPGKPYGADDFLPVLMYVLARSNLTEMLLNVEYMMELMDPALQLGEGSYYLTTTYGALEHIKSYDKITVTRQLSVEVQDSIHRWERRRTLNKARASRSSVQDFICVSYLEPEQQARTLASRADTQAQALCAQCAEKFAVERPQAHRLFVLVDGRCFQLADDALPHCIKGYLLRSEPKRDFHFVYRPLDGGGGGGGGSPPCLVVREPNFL

binding (FLAG-RIN1): binds weakly
binding (FLAG-RIN2): binds weakly
binding (FLAG-RIN3): no binding
B1: endogenous odin (HEK293T) (protein, UniProt Q92625 1-1134)
chain: MGKEQELLEAARTGHLPAVEKLLSGKRLSSGFGGGGGGGSGGGGGGSGGGGGGLGSSSHPLSSLLSMWRGPNVNCVDSTGYTPLHHAALNGHKDVVEVLLRNDALTNVADSKGCYPLHLAAWKGDAQIVRLLIHQGPSHTRVNEQNNDNETALHCAAQYGHTEVVKVLLEELTDPTMRNNKFETPLDLAALYGRLEVVKMLLNAHPNLLSCNTKKHTPLHLAARNGHKAVVQVLLDAGMDSNYQTEMGSALHEAALFGKTDVVQILLAAGTDVNIKDNHGLTALDTVRELPSQKSQQIAALIEDHMTGKRSTKEVDKTPPPQPPLISSMDSISQKSQGDVEKAVTELIIDFDANAEEEGPYEALYNAISCHSLDSMASGRSSDQDSTNKEAEAAGVKPAGVRPRERPPPPAKPPPDEEEEDHIDKKYFPLTASEVLSMRPRIHGSAAREEDEHPYELLLTAETKKVVLVDGKTKDHRRSSSSRSQDSAEGQDGQVPEQFSGLLHGSSPVCEVGQDPFQLLCTAGQSHPDGSPQQGACHKASMQLEETGVHAPGASQPSALDQSKRVGYLTGLPTTNSRSHPETLTHTASPHPGGAEEGDRSGARSRAPPTSKPKAELKLSRSLSKSDSDLLTCSPTEDATMGSRSESLSNCSIGKKRLEKSPSFASEWDEIEKIMSSIGEGIDFSQERQKISGLRTLEQSVGEWLESIGLQQYESKLLLNGFDDVHFLGSNVMEEQDLRDIGISDPQHRRKLLQAARSLPKVKALGYDGNSPPSVPSWLDSLGLQDYVHSFLSSGYSSIDTVKNLWELELVNVLKVQLLGHRKRIIASLADRPYEEPPQKPPRFSQLRCQDLLSQTSSPLSQNDSCTGRSADLLLPPGDTGRRRHDSLHDPAAPSRAERFRIQEEHREAKLTLRPPSLAAPYAPVQSWQHQPEKLIFESCGYEANYLGSMLIKDLRGTESTQDACAKMRKSTEHMKKIPTIILSITYKGVKFIDASNKNVIAEHEIRNISCAAQDPEDLCTFAYITKDLQTSHHYCHVFSTVDVNLTYEIILTLGQAFEVAYQLALQAQKSRATGASAAEMIETKSSKPVPKPRVGVRKSALEPPDMDQDAQSHASVSWVVDPKPDSKRSLSTN
